These are yes or no findings as the source states them, for the method shown. In cells and extracts the contact can be indirect. A yes stands for co-enrichment or nearness to the bait. Other partners may have been found. Sequences can lack the tags named with a protein.
T1: Flag-tagged human Thioredoxin1 Cys35Ser mutant (flag-hTrx1C35S) (human) (UniProt P10599)
T1 sequence: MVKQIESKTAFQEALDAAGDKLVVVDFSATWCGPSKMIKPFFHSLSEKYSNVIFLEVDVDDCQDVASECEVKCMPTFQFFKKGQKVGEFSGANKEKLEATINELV

B1: plasminogen activator inhibitor 1 RNA-binding protein (SERBP1) (protein, UniProt Q9CY58 1-407)
chain: MPGHLQEGFGCVVTNRFDQLFDDESDPFEVLKAAENKKKEAGGGGVGGPGAKSAAQAAAQTNSNAAGKQLRKESQKDRKNPLPPSVGVADKKEETQPPVALKKEGIRRVGRRPDQQLQGDGKLIDRRAERRPPRERRFEKPLEEKGEGGEFSVDRPIIERPIRGRGGLGRGRGGRGRGMGRGDGFDSRGKREFDRHSGSDRSSFSHYSGLKHEDKRGGSGSHNWGTVKDELTESPKYIQKQISYNCSDLDQSNVTEETPEGEEHPVADTENKENEVEEVKEEGPKEMTLDEWKAIQNKDRAKVEFNIRKPNEGADGQWKKGFVLHKSKSEEAHAEDSVMDHHFRKPANDITSQLEINFGDLGRPGRGGRGGRGGRGRGGRPNRGSRTDKSSASAPDVDDPEAFPALA
B2: solute carrier family 12 member 6 (SLC12A6) (protein, UniProt Q924N4 1-1150)
chain: MHPPEATTKMSSVRFMVTPTKIDDIPGLSDTSPDLSSRSSSRVRFSSRESVPETSRSEPMSELSGATTSLATVALDPSSDRTSNPQDVTEDPSQNSITGEHSQLLDDGHKKARNAYLNNSNYEEGDEYFDKNLALFEEEMDTRPKVSSLLNRMANYTNLTQGAKEHEEAENITEGKKKPTKSPQMGTFMGVYLPCLQNIFGVILFLRLTWVVGTAGILQAFAIVLICCCCTMLTAISMSAIATNGVVPAGGSYFMISRALGPEFGGAVGLCFYLGTTFAAAMYILGAIEIFLVYIVPRAAIFRSDDALKESAAMLNNMRVYGTAFLVLMVLVVFIGVRYVNKFASLFLACVIVSILAIYAGAIKSSFAPPHFPVCMLGNRTLSSRHLDICSKTKEVDNMTVPSKLWGFFCNSSQFFNATCDEYFVHNNVISIQGIPGLASGIITENLWSNYLPKGEIIEKPSAKSSDVLGNLNHEYVLADITTSFTLLVGIFFPSVTGIMAGSNRSGDLKDAQKSIPIGTILAILTTSFVYLSNVVLFGACIEGVVLRDKFGDAVKGNLVVGTLSWPSPWVIVIGSFFSTCGAGLQSLTGAPRLLQAIAKDNIIPFLRVFGHSKANGEPTWALLLTAAIAELGILIASLDLVAPILSMFFLMCYLFVNLACALQTLLRTPNWRPRFRYYHWALSFMGMSICLALMFISSWYYAIVAMVIAGMIYKYIEYQGAEKEWGDGIRGLSLSAARFALLRLEEGPPHTKNWRPQLLVLLKLDEDLHVKHPRLLTFASQLKAGKGLTIVGSVIVGNFLENYGDALAAEQTIKHLMEAEKVKGFCQLVVAAKLKEGISHLIQSCGLGGMKHNTVVMGWPNGWRQSEDARAWKTFIGTVRVTTAAHLALLVAKNVSFFPSNVEQFSEGNIDVWWIVHDGGMLMLLPFLLKQHKVWRKCSIRIFTVAQLEDNSIQMKKDLATFLYHLRIEAEVEVVEMHDSDISAYTYERTLMMEQRSQMLRHMRLSKTERDREAQLVKDRNSMLRLTSIGSDEDEETETYQEKVHMTWTKDKYMASRGQKVKSMEGFQDLLNMRPDQSNVRRMHTAVKLNEVIVNKSHEAKLVLLNMPGPPRNPEGDENYMEFLEVLTEGLERVLLVRGGGSEVITIYS
B3: vesicular inhibitory amino acid transporter (SLC32A1) (protein, UniProt O35633 1-525)
chain: MATLLRSKLTNVATSVSNKSQAKVSGMFARMGFQAATDEEAVGFAHCDDLDFEHRQGLQMDILKSEGEPCGDEGAEAPVEGDIHYQRGGAPLPPSGSKDQAVGAGGEFGGHDKPKITAWEAGWNVTNAIQGMFVLGLPYAILHGGYLGLFLIIFAAVVCCYTGKILIACLYEENEDGEVVRVRDSYVAIANACCAPRFPTLGGRVVNVAQIIELVMTCILYVVVSGNLMYNSFPGLPVSQKSWSIIATAVLLPCAFLKNLKAVSKFSLLCTLAHFVINILVIAYCLSRARDWAWEKVKFYIDVKKFPISIGIIVFSYTSQIFLPSLEGNMQQPSEFHCMMNWTHIAACVLKGLFALVAYLTWADETKEVITDNLPGSIRAVVNLFLVAKALLSYPLPFFAAVEVLEKSLFQEGSRAFFPACYGGDGRLKSWGLTLRCALVVFTLLMAIYVPHFALLMGLTGSLTGAGLCFLLPSLFHLRLLWRKLLWHQVFFDVAIFVIGGICSVSGFVHSLEGLIEAYRTNAED
B4: peroxiredoxin-5 (PRDX5) (enzyme, UniProt P99029 49-210)
chain: MAPIKVGDAIPSVEVFEGEPGKKVNLAELFKGKKGVLFGVPGAFTPGCSKTHLPGFVEQAGALKAKGAQVVACLSVNDVFVIEEWGRAHQAEGKVRLLADPTGAFGKATDLLLDDSLVSLFGNRRLKRFSMVIDNGIVKALNVEPDGTGLTCSLAPNILSQL
B5: cysteine and glycine rich protein 1 (CSRP1) (protein, UniProt P97315 1-193)
chain: MPNWGGGKKCGVCQKTVYFAEEVQCEGNSFHKSCFLCMVCKKNLDSTTVAVHGEEIYCKSCYGKKYGPKGYGYGQGAGTLSTDKGESLGIKHEEAPGHRPTTNPNASKFAQKIGGSERCPRCSQAVYAAEKVIGAGKSWHKSCFRCAKCGKGLESTTLADKDGEIYCKGCYAKNFGPKGFGFGQGAGALVHSE
B6: vesicular glutamate transporter 2 (SLC17A6) (protein, UniProt Q8BLE7 1-582)
chain: MESVKQRILAPGKEGIKNFAGKSLGQIYRVLEKKQDNRETIELTEDGKPLEVPEKKAPLCDCTCFGLPRRYIIAIMSGLGFCISFGIRCNLGVAIVDMVNNSTIHRGGKVIKEKAKFNWDPETVGMIHGSFFWGYIITQIPGGYIASRLAANRVFGAAILLTSTLNMLIPSAARVHYGCVIFVRILQGLVEGVTYPACHGIWSKWAPPLERSRLATTSFCGSYAGAVIAMPLAGILVQYTGWSSVFYVYGSFGMVWYMFWLLVSYESPAKHPTITDEERRYIEESIGESANLLGAMEKFKTPWRKFFTSMPVYAIIVANFCRSWTFYLLLISQPAYFEEVFGFEISKVGMLSAVPHLVMTIIVPIGGQIADFLRSKQILSTTTVRKIMNCGGFGMEATLLLVVGYSHTRGVAISFLVLAVGFSGFAISGFNVNHLDIAPRYASILMGISDGVGTLSGMVCPIIVGAMTKNKSREEWQYVFLIAALVHYGGVIFYALFASGEKQPWADPEETSEEKCGFIHEDELDEETGDITQNYINYGTTKSYGATSQENGGWPNGWEKKEEFVQEGAQDAYTYKDRDDYS
B7: Solute carrier family 12 member 5 (SLC12A5) (protein, UniProt Q91V14 1-1138)
chain: MSRRFTVTSLPPAASAASADPESRRHSVADPRRLPREDVKGDGNPKESSPFINSTDTEKGREYDGRNMALFEEEMDTSPMVSSLLSGLANYTNLPQGSREHEEAENNEGGKKKPVQAPRMGTFMGVYLPCLQNIFGVILFLRLTWVVGIAGIMESFCMVFICCSCTMLTAISMSAIATNGVVPAGGSYYMISRSLGPEFGGAVGLCFYLGTTFAGAMYILGTIEILLAYLFPAMAIFKAEDASGEAAAMLNNMRVYGTCVLTCMATVVFVGVKYVNKFALVFLGCVILSILAIYAGVIKSAFDPPNFPICLLGNRTLSRHGFDVCAKLAWEGNETVTTRLWGLFCSSRLLNATCDEYFTRNNVTEIQGIPGAASGLIKENLWSSYLTKGVIVERRGMPSVGLADGTPVDMDHPYVFSDMTSYFTLLVGIYFPSVTGIMAGSNRSGDLRDAQKSIPTGTILAIATTSAVYISSVVLFGACIEGVVLRDKFGEAVNGNLVVGTLAWPSPWVIVIGSFFSTCGAGLQSLTGAPRLLQAISRDGIVPFLQVFGHGKANGEPTWALLLTACICEIGILIASLDEVAPILSMFFLMCYMFVNLACAVQTLLRTPNWRPRFRYYHWTLSFLGMSLCLALMFICSWYYALVAMLIAGLIYKYIEYRGAEKEWGDGIRGLSLSAARYALLRLEEGPPHTKNWRPQLLVLVRVDQDQNVVHPQLLSLTSQLKAGKGLTIVGSVLEGTFLDNHPQAQRAEESIRRLMEAEKVKGFCQVVISSNLRDGVSHLIQSGGLGGLQHNTVLVGWPRNWRQKEDHQTWRNFIELVRETTAGHLALLVTKNVSMFPGNPERFSEGSIDVWWIVHDGGMLMLLPFLLRHHKVWRKCKMRIFTVAQMDDNSIQMKKDLTTFLYHLRITAEVEVVEMHESDISAYTYEKTLVMEQRSQILKQMHLTKNEREREIQSITDESRGSIRRKNPANPRLRLNVPEETACDNEEKPEEEVQLIHDQSAPSCPSSSPSPGEEPEGERETDPEVHLTWTKDKSVAEKNKGPSPVSSEGIKDFFSMKPEWENLNQSNVRRMHTAVRLNEVIVNKSRDAKLVLLNMPGPPRNRNGDENYMEFLEVLTEQLDRVMLVRGGGREVITIYS

Biological target: T1, Flag-tagged human Thioredoxin1 Cys35Ser mutant (flag-hTrx1C35S) (human)
Assay: affinity purification with mass spectrometry

Row | binding | Binder
1 | binds | B1
2 | binds | B2
3 | binds | B3
4 | binds | B4
5 | binds | B5
6 | binds | B6
7 | binds | B7

Source: article doi:10.1101/2024.02.27.582366
